# Results reported in the supplement of paper PMC3334620.
# The full ranking holds about 33,000 sequences; the median of “E-score (-0.5 to 0.5)” is about -0.0014, and the highest 2% start at about 0.25. The list shows a part of the results.
# Target: T1, Cad1 (UniProt P24813)
# T1 sequence: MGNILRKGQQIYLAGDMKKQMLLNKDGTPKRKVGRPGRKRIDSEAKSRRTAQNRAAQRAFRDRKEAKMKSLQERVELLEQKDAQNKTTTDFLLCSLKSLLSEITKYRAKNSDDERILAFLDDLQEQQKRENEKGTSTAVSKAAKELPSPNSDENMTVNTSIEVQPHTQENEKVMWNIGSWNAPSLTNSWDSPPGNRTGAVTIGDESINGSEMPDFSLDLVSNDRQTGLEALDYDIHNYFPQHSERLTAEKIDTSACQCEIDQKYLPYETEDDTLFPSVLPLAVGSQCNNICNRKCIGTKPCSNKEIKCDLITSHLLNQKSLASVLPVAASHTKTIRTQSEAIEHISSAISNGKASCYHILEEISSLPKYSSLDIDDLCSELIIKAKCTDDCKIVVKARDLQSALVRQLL
# Experiment: PBM E-score (8-mer binding enrichment) (E-score (-0.5 to 0.5)); higher = stronger / more preferred TF binding
# Conditions: protein concentration: 100 nM; construct: GST-full length
# In short: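 Yeast transcription factors, full-length or as DNA-binding domains, were expressed with a GST tag using PURExpress in vitro transcription/translation. At about 100-200 nM they were applied to universal all-10-mer Agilent arrays, double-stranded by primer extension on fresh or once-stripped slides. Fluorescent anti-GST detected bound protein, and masliner normalised the scans. E-scores for ungapped eight-base words, pooled with reverse complements, came from the Universal PBM Analysis Suite.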
row,Sequence,PBM E-score
1,CGACGCCC,-0.109
2,AGACGCCA,0.0204
3,GCGATCCA,-0.0123
4,TACCTTCA,0.00633
5,AGATATTA,0.156
6,CCAGCCAG,-0.207
7,ACAGATTC,0.0957
8,GCACCGCA,-0.132
9,AAAGAGTC,-0.157
10,AAGTGTCT,0.0844
11,ATTTACAG,0.0882
12,GCCGCCCC,-0.0835
13,ACCGCCAC,-0.0896
14,ATCGGCAA,0.0362
15,ACTGCAGC,-0.156
16,AAGGAATT,-0.066
17,TGTCGACA,0.0251
18,AGGTGAAG,-0.053
19,GTACATAA,0.0232
20,CGTTCTCA,-0.0845
21,CCCTTAGA,-0.156
22,TGACACAA,0.126
23,AATGTGTC,0.0518
24,CCATCCCA,-0.167
25,ACTACGCA,-0.148

# Given tab-delimited: part of the list above.
row	Sequence	PBM E-score
1	CGACGCCC	-0.109
16	AAGGAATT	-0.066
19	GTACATAA	0.0232
22	TGACACAA	0.126

# Next records

row,Sequence,PBM E-score
1,CAGAGAGC,-0.174
2,AACGGGCC,-0.149
3,CAACCATC,-0.166
4,GGTTCGAC,0.025
5,ATCTCCCC,-0.373
6,AGTGCATA,0.0539
7,ATGGGTCA,-0.0273
8,ACAAATTA,0.295
9,CAACTGGA,0.00883
10,GATGCGCC,0.0113
11,AAGAATTG,0.097
12,GACACACC,0.191
13,TGAGCCAA,-0.098
14,CTATGCAC,0.0273
15,ACGCTAGC,-0.0932
16,ATGGGAGC,-0.0599
17,TAGCCATA,-0.0739
18,GCTAGAAA,0.171
19,CTCACACA,0.0912
20,GAATGTCA,0.128
21,CCAGACCA,0.0202
22,AGAATTAC,0.166
23,CAAGATAG,-0.0264
24,GGTACAGA,0.0302
25,CCTTAATA,0.0381

row,Sequence,PBM E-score
1,GATGCATA,0.124
2,CCCCCCCA,-0.433
3,ACTGGTGA,-0.134
4,CACTCTCC,0.00042
5,GACCGCGA,0.0744
6,CCACTCAC,0.00467
7,CATCCTGC,0.0554
8,GCGATTAC,0.0714
9,AACCTTTC,-0.0922
10,ATTGTCGG,0.11
11,GCGTGAGA,0.113
12,ATTTTTGC,0.171
13,AACCAGCA,-0.0769
14,CTAGAGCC,-0.137
15,CCACAACC,0.165
16,AAGAGAGT,-0.187
17,CGGAAAAG,-0.0157
18,CAAGTTGG,0.105
19,ATCCCATA,-0.182
20,CCCGACAC,-0.0656
21,AGTCACAA,0.0968
22,ATACTGCG,-0.003
23,CATGGTCC,-0.106
24,CATGCGGC,0.0407
25,ATAGCAAA,0.0497

# Quoted at random: five records from the list.
row,Sequence,PBM E-score
1,GATGCATA,0.124
16,AAGGAATT,-0.066
19,GTACATAA,0.0232
14,CTAGAGCC,-0.137
8,GCGATTAC,0.0714

# (list continues)

row,Sequence,PBM E-score
1,GTATGAGA,0.104
2,GCAAGCCC,-0.154
3,CCAAGCGA,-0.075
4,AAGCGCGG,-0.0419
5,ATGAGGAA,0.0799
6,CACATGGG,-0.0669
7,AGCATCCC,-0.231
8,AGACCGAT,-0.101
9,AGTGGGTA,-0.00773
10,GTTGGGGA,-0.0964
11,TCTCCGCA,-0.0852
12,CACGCAGA,0.00837
13,AAAAACGA,0.183
14,TATGGGAA,0.00165
15,ACTACAAC,0.0401
16,AGTCTGCG,-0.213
17,GAAGCGTC,-0.0481
18,GAACGGGC,-0.166
19,CCTCCTCG,-0.0907
20,CAGGTACC,-0.0962
21,CGAGAACG,0.0208
22,AGGGATCC,-0.237
23,ATGTCGCG,0.116
24,GGTATCAA,-0.081
25,AGCACGAG,0.156

row,Sequence,PBM E-score
1,GAAGAACC,-0.217
2,AATGAATT,0.163
3,GCGAGACC,-0.0863
4,ACTTGTTC,0.16
5,GCTGACCA,0.252
6,ACAGGACC,-0.13
7,CCTCCCGC,-0.0731
8,GTTAGCGA,0.133
9,AAGGAATC,0.0577
10,ACAGGCAG,-0.0835
11,ACACCTGA,0.0295
12,ACACGGCA,-0.175
13,CTCCGCTC,-0.158
14,ATTACCCG,0.0888
15,ATGCTTCC,0.033
16,TCAGCTCA,0.147
17,CTCCGGTA,-0.0568
18,AAAGTCTG,0.102
19,CACTGACA,0.134
20,CATCAATG,0.0128
21,CTGTTCAC,0.0438
22,GTTTTTGA,0.0961
23,ATGTACTC,-0.0498
24,ACGGCATC,-0.116
25,ACCCAATG,-0.0501

# As a working copy, part of the list above.
row,Sequence,PBM E-score
20,CATCAATG,0.0128
21,CTGTTCAC,0.0438

# More entries

row,Sequence,PBM E-score
1,AACTTCGT,-0.0966
2,CCCACCCG,0.0355
3,GTTGTGCA,-0.181
4,AAGACGGT,-0.205
5,CCGGTGGC,-0.211
6,ACCTTATC,-0.0737
7,GCCTTCTA,-0.277
8,AGCCTCAA,-0.0782
9,AAGGTTGT,-0.0389
10,CCCGCACA,-0.0532
11,AACCTGGG,-0.0449
12,GCAAAGTA,0.114
13,TCCCCACA,-0.219
14,TTAACTAA,0.291
15,GCTTTGCC,-0.183
16,AGCGGCGA,0.0777
17,AGTCAATA,0.0384
18,ACGGATCA,0.215
19,CCGGTATA,-0.0258
20,AAATTCTA,0.127
21,GCTTCCAA,-0.0323
22,CCTTACCC,-0.158
23,GCGCAGGA,-0.139
24,CTTCTATA,-0.00317
25,CATACGAG,-0.0876

row,Sequence,PBM E-score
1,AATACCCT,-0.00186
2,AAAAGCCC,-0.0561
3,AGTGAGGA,0.0115
4,AAAGCTTG,-0.0355
5,GGGTTCTA,-0.193
6,GGAGCAAA,-0.169
7,ACGGCGGG,0.132
8,CGGGGCGC,-0.277
9,AACAGGCC,-0.19
10,ATGTAATG,0.281
11,CCAAACCC,-0.0556
12,CAAGCCTC,-0.0653
13,TTCAGAAA,-0.0441
14,AGTACTTG,0.104
15,CGAATATA,0.13
16,CGATCAGA,-0.0457
17,ACCTCAAT,-0.0754
18,TAATTGGA,0.106
19,AAGTGATA,-0.118
20,AAGTTTCG,0.0162
21,CGACCGCC,-0.231
22,TAAAATCA,0.102
